Measurements published in patent publication US20240285586A1, “METHODS FOR TREATING BACTERIAL CELL POPULATIONS” (THE HONG KONG POLYTECHNIC UNIVERSITY, priority 2021, published 2024).

Test system: E. coli J53 (mcr-1)
Assay: MIC of colistin in presence and absence of compound, broth dilution
Type: cell-based, Escherichia coli
Details: antibiotic resistant E. coli (FIG. 20)
Procedure: FIG. 20. […] The MICs of colistin in the presence and absence of Compound No. 1-23 against colistin-resistant E. coli was determined using broth dilution method according to the CLSI criteria of 2016.

Question: For Clc1ccc(CSC(Cn2ccnc2)c2ccc(Cl)cc2Cl)cc1 (stereo not shown) [sulconazole], which “effect of co-administration with colistin” value is on record?
Answer: bactericidal synergistic effect
